{"source": "PubChem BioAssay AID485298", "about": "(National Center for Advancing Translational Sciences (NCATS), 2010)", "note": "Hit rate of the full screen: of about 320,000 compounds, about 740 (0.23%) were called active. Inconclusive results, whose numbers are uncertain, are shown with a selection of clear calls. Calls follow the shape of the dose curve; as a rule, active = well fitted activation curve with a large enough effect; inconclusive = small, poorly fitted or top-dose-only effect; inactive = no such curve, though single readings can be large or run the other way. A potency beside an inconclusive call is a rough fit, not a confirmed value. Potency is read from the fitted curve at half-maximal effect.", "data": [{"assay": "qHTS Assay for Small Molecule Inhibitors of Mitochondrial Division or Activators of Mitochondrial Fusion; also: nearly all actives have a fitted effect of over 45% in size; as to growth rescue (activation): % of control where 0% means no effect", "details": "S. cerevisiae fusion-defective mutant growth rescue, CellTiterGlo 48 h; growth rescue (activation): at 46.1 µM (top of the series) unless noted", "summary_of_the_method": "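S. cerevisiae fusion-defective temperature-sensitive mutants (e.g. fzo1-1, mgm1-5) grown 48 h at 37C in YPEG (ethanol/glycerol non-fermentable) medium with 23 nl compound per well; growth rescue read as CellTiterGlo luminescence.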", "values": [{"smiles": "COc1ccc2c(c1)C(=O)/C(=C/C=C/c1ccccc1)CC2", "growth rescue (activation)": "inactive: 14.7%"}, {"smiles": "Cc1nn(-c2ccccc2)c(C)c1/C=N/NC(=O)c1cc(-c2cccc3ccccc23)n[nH]1", "Potency": "inconclusive: 31.6 µM [activator, single point]"}, {"smiles": "CCc1ccc(Nc2ccc(C(=O)O)cc2[N+](=O)[O-])cc1", "Potency": "active: 20 µM"}, {"smiles": "CSc1nnc2n(C)c3c(c(=O)n12)C1(CCCC1)Cc1ccccc1-3", "growth rescue (activation)": "inactive: 4.94%"}, {"smiles": "Cc1nc2ccc(NC(=O)c3ccc(Cl)c(S(=O)(=O)N(C)c4ccccc4)c3)cc2s1", "Potency": "inconclusive: 11.2 µM [activator, partial curve]"}, {"smiles": "COc1ccc(/C=N\\NC(=O)COc2ccc(C(C)(C)C)cc2)cc1Cn1nc(C)cc1C", "growth rescue (activation)": "inactive: -1.91%"}, {"smiles": "O=C(CSCc1ccccc1Br)N/N=C/c1ccc2c(c1)OCO2", "Potency": "inconclusive: 12.6 µM [activator, partial curve]"}, {"smiles": "Cc1cccc(OCCCn2c(=O)sc3ccccc32)c1", "growth rescue (activation)": "inactive: 4.57%"}, {"smiles": "COc1ccc(C(=O)N2N=C(c3cccs3)CC2c2ccccc2O)cc1", "note": "(stereo unspecified)", "Potency": "inconclusive: 6.31 µM [activator, single point]"}, {"smiles": "Nc1nc(-c2cccc(Br)c2)cs1", "growth rescue (activation)": "inactive: 13.8%"}, {"smiles": "CCOC(=O)CN(C(=O)CSc1nnc(Cc2ccccc2)n1-c1ccc(C)cc1)c1ccccc1", "Potency": "inconclusive: 35.5 µM [activator, single point]"}, {"smiles": "CC(=O)N(\\C=C/C=C/C=C1\\Sc2ccccc2C1=O)c1ccccc1", "growth rescue (activation)": "inactive: 5.56%"}, {"smiles": "O=C(CCN1C(=O)S/C(=C/c2ccccc2)C1=O)Nc1ccc(C(=O)O)c(O)c1", "Potency": "inconclusive: 15.8 µM [activator, single point]"}, {"smiles": "COc1cc(-c2cc(=O)c3c(O)c(OC)c(OC)cc3o2)cc(OC)c1O", "Potency": "inconclusive: 10 µM [activator, partial curve]"}, {"smiles": "CC(C)(C)c1cnnn1-c1ccc(C=O)cc1", "growth rescue (activation)": "inactive: -0.284%"}, {"smiles": "COCCn1c(=NC(=O)CSCC(=O)Nc2cc(C)on2)sc2cc(C(=O)OC)ccc21", "growth rescue (activation)": "inactive: -3.17%"}, {"smiles": "Cc1nc(C)c(-c2csc(Nc3ccc(N)cc3)n2)s1", "growth rescue (activation)": "inactive: -2.48%"}, {"smiles": "C=CC[n+]1c(-c2ccc(OC)cc2)csc1NNC(=O)Nc1ccccc1", "growth rescue (activation)": "inactive: -0.162%"}, {"smiles": "O=C(CC1(O)C(=O)N(CCc2ccccc2)c2ccccc21)c1ccccn1", "note": "(stereo unspecified)", "Potency": "inconclusive: 12.6 µM [activator, partial curve]"}, {"smiles": "CC1CN(C(=O)Nc2ccc3snnc3c2)c2ccccc21", "note": "(stereo unspecified)", "Potency": "inconclusive: 22.4 µM [activator, single point]"}, {"smiles": "O=C(/C=C/c1cccc(Br)c1)NC1CCN(Cc2ccccc2)CC1", "Potency": "inconclusive: 6.31 µM [activator, partial curve]"}, {"smiles": "CC1CC1C(=O)Nc1nc(-c2cccs2)c(-c2cccs2)s1", "note": "(stereo unspecified)", "Potency": "inconclusive: 31.6 µM [activator, single point]"}, {"smiles": "CCC1Oc2ccc(C)cc2N(CC(=O)N(Cc2cccnc2)Cc2ccc(C)o2)C1=O", "note": "(stereo unspecified)", "growth rescue (activation)": "inactive: 7.46%"}, {"smiles": "CCOc1cc(C(=O)N/N=C/C(Br)=C/c2ccccc2)cc(OCC)c1OCC", "growth rescue (activation)": "inactive: -21.3%"}, {"smiles": "O=C(Nc1ccc(S(=O)(=O)Nc2ncccn2)cc1)C1COc2ccccc2O1", "note": "(stereo unspecified)", "Potency": "inconclusive: 22.4 µM [activator, single point]"}, {"smiles": "CC(C)c1nc(SCC(=O)Nc2nc3c(s2)CCCC3)c2ccccc2n1", "Potency": "inconclusive: 28.2 µM [activator, single point]"}, {"smiles": "CC1=C(C(=O)OCc2ccccc2)C(c2ccc([N+](=O)[O-])cc2)NC(=O)N1C", "note": "(stereo unspecified)", "growth rescue (activation)": "inactive: -2.28%"}, {"smiles": "CN(c1ccccc1)S(=O)(=O)c1cccc(NC(=O)COc2ccccc2)c1", "Potency": "inconclusive: 17.8 µM [activator, single point]"}, {"smiles": "Cc1ccc(NCc2n[nH]c(=S)n2-c2cccc(Cl)c2)cc1", "Potency": "inconclusive: 35.5 µM [activator, single point]"}, {"smiles": "COC(=O)c1sc(-c2ccc(C(C)(C)C)cc2)cc1NC(=O)COCC(=O)O", "growth rescue (activation)": "inactive: 5.75%"}, {"smiles": "CCC(=O)N1CCc2cc(Br)cc(S(=O)(=O)N3CCCCC3CC)c21", "note": "(stereo unspecified)", "Potency": "inconclusive: 11.2 µM [activator, partial curve]"}, {"smiles": "COc1cc2cnc(-c3ccccc3)c(-c3ccc(C(F)(F)F)cc3)c2cc1OC", "Potency": "inconclusive: 28.2 µM [activator, single point]"}, {"smiles": "CN1C(=O)CC(N2CCN(Cc3ccc(Cl)cc3)CC2)C1=O", "note": "(stereo unspecified)", "Potency": "inconclusive: 17.8 µM [activator, partial curve]"}, {"smiles": "CC(C)(C)SCCNC(=O)CN(c1ccc(F)cc1)S(C)(=O)=O", "Potency": "active: 6.31 µM"}, {"smiles": "COc1ccc(NS(=O)(=O)c2cc(NC(=O)c3cccs3)ccc2N2CCOCC2)cc1", "Potency": "inconclusive: 11.2 µM [activator, partial curve]"}, {"smiles": "O=C(Nc1cccc(-n2cnnn2)c1)c1cnccc1Cl", "growth rescue (activation)": "inactive: 6.09%"}, {"smiles": "CCOC(=O)C(=NC(C)C)NNc1cc(Cl)ccc1Cl", "growth rescue (activation)": "inactive: -0.127%"}, {"smiles": "Cc1c(-c2ccccc2)oc2c(C(=O)OCC(=O)Nc3ccc(F)cc3)cccc2c1=O", "Potency": "inconclusive: 15.8 µM [activator, single point]"}, {"smiles": "COc1cc(CNCCc2ccc(S(N)(=O)=O)cc2)ccc1OCc1ccc(Cl)cc1", "growth rescue (activation)": "inactive: 0.568%"}, {"smiles": "COC(=O)c1ccccc1NC(=O)CNc1cc(Cl)ccc1N1CCOCC1", "Potency": "inconclusive: 3.55 µM [activator, single point]"}, {"smiles": "COc1cc(S(=O)(=O)N2CCN(c3ccccc3F)CC2)c(OC)cc1Cl", "Potency": "inconclusive: 31.6 µM [activator, single point]"}, {"smiles": "Cc1cc(SCC(=O)N2CCN(C(=O)c3ccco3)CC2)c(C)cc1Br", "growth rescue (activation)": "inactive: 7.89%"}, {"smiles": "O=C(CCc1ccccc1)NC1(Cc2ccccc2)CCN(CCCc2ccccc2)C1=O", "note": "(stereo unspecified)", "Potency": "inconclusive: 7.94 µM [activator, single point]"}, {"smiles": "COc1ccc(S(=O)(=O)N2CCN(C/C=C/c3ccccc3)CC2)cc1F", "Potency": "inconclusive: 11.2 µM [activator, partial curve]"}, {"smiles": "O=C(NC(=S)N1CCN(c2ccc([N+](=O)[O-])cc2)CC1)c1ccccc1F", "Potency": "inconclusive: 31.6 µM [activator, single point]"}, {"smiles": "O=C(NCC(c1ccco1)N1CCc2ccccc2C1)c1cccc(Br)c1", "note": "(stereo unspecified)", "Potency": "inconclusive: 17.8 µM [activator, single point]"}]}]}
